{"source": "PubChem BioAssay AID686943 | Drosophila RNAi Screening Center – 2013", "aim": "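Fly genes whose loss alters ERK activation after insulin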 (primary screen)", "system": "Drosophila S2R+ haemocyte-like cells expressing YFP-tagged ERK (Rolled)", "reagent": "long dsRNA against Drosophila genes", "conditions": "insulin stimulation versus unstimulated cells; dose and duration not given", "measurement": "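Per-plate z-scores of phospho-ERK immunostaining normalised to YFP-tagged ERK, measured with and without insulin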", "scale": "replicate 1, z-score of dpERK with insulin and replicate 2, z-score of dpERK with insulin: higher = more active ERK per ERK-YFP after insulin", "note": "The deposit covers about 23,000 reagents; below is a random part of those with a known target gene and a result. 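Extra replicates exist only for a retested subset of genes; insulin dose and duration not given; both raised and lowered dpERK matter.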 A plus sign joins genes that one reagent is predicted to hit. Not all columns of the deposit are shown. Not given: the amount of reagent, the time to read-out."}
{"target gene": "Acyp", "amplicon": "DRSC01861", "replicate 1, z-score of dpERK with insulin": -0.24, "replicate 2, z-score of dpERK with insulin": -0.22}
{"target gene": "Ars2", "amplicon": "DRSC04893", "replicate 1, z-score of dpERK with insulin": -1.01, "replicate 2, z-score of dpERK with insulin": 0.07}
{"target gene": "CG30026", "amplicon": "DRSC05276", "replicate 1, z-score of dpERK with insulin": -0.69, "replicate 2, z-score of dpERK with insulin": 0.18}
{"target gene": "CG13465", "amplicon": "DRSC10011", "replicate 1, z-score of dpERK with insulin": 0.28, "replicate 2, z-score of dpERK with insulin": 0.19}
{"target gene": "Rme-8", "amplicon": "DRSC07054", "replicate 1, z-score of dpERK with insulin": 0.4, "replicate 2, z-score of dpERK with insulin": 0.8}
{"target gene": "CG4829", "amplicon": "DRSC19920", "replicate 1, z-score of dpERK with insulin": -0.66, "replicate 2, z-score of dpERK with insulin": -0.92}
{"target gene": "MnM", "amplicon": "DRSC08423", "replicate 1, z-score of dpERK with insulin": -0.01, "replicate 2, z-score of dpERK with insulin": -0.03}
{"target gene": "CG2209", "amplicon": "DRSC19843", "replicate 1, z-score of dpERK with insulin": -0.05, "replicate 2, z-score of dpERK with insulin": 0.25}
{"target gene": "CG13148", "amplicon": "DRSC06275", "replicate 1, z-score of dpERK with insulin": 1.11, "replicate 2, z-score of dpERK with insulin": 1.39}
{"target gene": "CG2217 + CG42740", "amplicon": "DRSC14141", "replicate 1, z-score of dpERK with insulin": -0.69, "replicate 2, z-score of dpERK with insulin": 0.47}
{"target gene": "CG43136", "amplicon": "DRSC17417", "replicate 1, z-score of dpERK with insulin": 0.48, "replicate 2, z-score of dpERK with insulin": 0.82}
{"target gene": "Gr10a", "amplicon": "DRSC18897", "replicate 1, z-score of dpERK with insulin": 1.4, "replicate 2, z-score of dpERK with insulin": 2.14}
{"target gene": "Gr10a", "amplicon": "DRSC22792", "replicate 1, z-score of dpERK with insulin": 0.25, "replicate 2, z-score of dpERK with insulin": -0.01}
{"target gene": "CCT4", "amplicon": "DRSC02865", "replicate 1, z-score of dpERK with insulin": -0.5, "replicate 2, z-score of dpERK with insulin": -0.15}
{"target gene": "Sgs7", "amplicon": "DRSC11281", "replicate 1, z-score of dpERK with insulin": -0.12, "replicate 2, z-score of dpERK with insulin": 1.54}
{"target gene": "CCAP-R", "amplicon": "DRSC14891", "replicate 1, z-score of dpERK with insulin": 1.05, "replicate 2, z-score of dpERK with insulin": 0.17}
{"target gene": "CCAP-R", "amplicon": "DRSC15967", "replicate 1, z-score of dpERK with insulin": 0.57, "replicate 2, z-score of dpERK with insulin": -0.03}
{"target gene": "CG9727", "amplicon": "DRSC12585", "replicate 1, z-score of dpERK with insulin": 0.85, "replicate 2, z-score of dpERK with insulin": 0.03}
{"target gene": "Tdh", "amplicon": "DRSC11788", "replicate 1, z-score of dpERK with insulin": -0.77, "replicate 2, z-score of dpERK with insulin": 0.33}
{"target gene": "CG17270", "amplicon": "DRSC15209", "replicate 1, z-score of dpERK with insulin": 0.29, "replicate 2, z-score of dpERK with insulin": 0.1}
{"target gene": "Ak2", "amplicon": "DRSC04043", "replicate 1, z-score of dpERK with insulin": -2.08, "replicate 2, z-score of dpERK with insulin": -0.93}
